According to PubChem BioAssay AID504467 (National Center for Advancing Translational Sciences (NCATS), 2011):
About 7,700 (2.3%) of roughly 330,000 compounds were called active. This list was built around the results that the source calls inconclusive (neither active nor inactive); the mix of calls is not that of the screen. The call rests on the fitted dose curve; in most records, active means well fitted inhibition curve with a large enough effect; inconclusive means small, poorly fitted or top-dose-only effect, or effect the other way; inactive means flat fitted curve, though single readings scatter. Potencies of inconclusive entries are doubtful fits and often do not repeat.

Experiment: qHTS screen for small molecules that inhibit ELG1-dependent DNA repair in human embryonic kidney (HEK293T) cells expressing luciferase-tagged ELG1; further: nearly all actives have a fitted effect of over 55% in size
Details: HEK293T ELG1-luciferase reporter, luminescence, 16 h, DNA damage induced by 5-fluorouridine; activity change, negative = inhibition: at 46.1 µM (top of the series)
Summary of the method: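 DMSO vehicle served as the neutral condition. Each well held 2,000 cells given 5-fluorouridine plus compound; after 16 hr at 37 °C/5% CO2, ONE-Glo was added and luciferase measured 30 min later.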
On the % scale 0 is the no-effect control and ±100 the full control effect; potency means the concentration at half of the fitted maximal effect.

Row | SMILES | activity change, negative = inhibition | Potency
1 | COC(=O)c1sccc1NC(=O)Nc1ccccc1Cl | inactive: -0.408% | 
2 | O=C1CC(c2cc(F)ccc2F)c2cc3c(cc2N1)CCC3 (centres undefined) | inactive: 8.62% | 
3 | CC(C)(C)Cc1nc(-c2ccccn2)no1 |  | inconclusive: 16.4 µM [activator, partial curve]
4 | COc1cccc(C(=O)NCCS(=O)(=O)NCc2ccco2)c1 | inactive: 4.11% | 
5 | CCOC(=O)CSc1nc2sc(C(=O)O)c(C)c2c(=O)[nH]1 | inactive: 7.79% | 
6 | Cc1nn(-c2ccccc2)c(C)c1NC(=O)COC(=O)c1ccc(Cl)c(N)c1 |  | inconclusive: 20.6 µM [inhibitor, partial curve, poor fit]
7 | Cc1sc(NC(=O)C2CSC3(C)CCC(=O)N23)nc1-c1ccc(F)cc1 (centres undefined) |  | active: 18.3 µM
8 | O=C(CSc1ccc(Br)c2cccc(Cl)c12)Nc1ccc(S(=O)(=O)Nc2nccs2)cc1 | inactive: 1.49% | 
9 | COc1ccc(NC(=O)CSc2nnc(-c3cccnc3)n2Cc2ccco2)c(OC)c1 |  | inconclusive: 7.31 µM [inhibitor, partial curve, poor fit]
10 | CCOC(=O)c1cc(C#N)c(N2CCOCC2)nc1-c1ccccc1 |  | inconclusive: 16.4 µM [inhibitor, single point]
11 | N#Cc1nc(-c2ccc(F)cc2)oc1NCCN1CCOCC1 |  | inconclusive: 23.1 µM [activator, partial curve, poor fit]
12 | O=C(Cc1nc2ccccc2[nH]c1=O)c1ccc(Cl)cc1 |  | inconclusive: 4.61 µM [activator, partial curve]
13 | O=C(CSc1ncnc2ccccc12)N1CCCC1 |  | inconclusive: 20.6 µM [activator, single point]
14 | COc1ccc(CNC(=O)COC(=O)c2cc(-c3ccco3)nc3ccccc23)cc1 |  | inconclusive: 0.146 µM [inhibitor, single point]
15 | COC(=O)C(/C=N/O)NC(=O)c1ccccc1 (centres undefined) | inactive: 3.97% | 
16 | CCNC(=O)Nc1nc2ccccc2s1 |  | inconclusive: 18.3 µM [activator, partial curve]
17 | CSCCC(NS(=O)(=O)c1ccc(C)cc1)C(=O)NNC(=O)c1csc(N2CCOCC2)n1 (centres undefined) | inactive: -2.42% | 
18 | O=C(NCc1ccccc1)C1=C[C@H](c2csc3ccccc23)C[C@H](OCc2ccc(CO)cc2)O1 |  | inconclusive: 23.1 µM [inhibitor, partial curve, poor fit]
19 | N#Cc1sc2nc(-c3cccs3)cc(-c3ccccc3)c2c1N |  | inconclusive: 35.5 µM [inhibitor, single point]
20 | CC(=O)c1cccc(NC(=O)C(Sc2ncnc3ccccc23)c2ccccc2)c1 (centres undefined) |  | inconclusive: 25.9 µM [inhibitor, partial curve, poor fit]
21 | O=C(N/N=C/c1ccccc1O)C1CC(=O)N(c2ccc(F)cc2)C1 (centres undefined) |  | inconclusive: 32.6 µM [inhibitor, single point]
22 | Cc1ccc(OCC(=O)c2cc(C)n(-c3cc(C)on3)c2C)c([N+](=O)[O-])n1 | inactive: 10.4% | 
23 | C[C@H](CO)N1C[C@H](C)[C@@H](CN(C)S(=O)(=O)c2ccccc2)Oc2c(NC(=O)Nc3ccccc3)cccc2C1=O |  | inconclusive: 16.4 µM [inhibitor, partial curve, poor fit]

Row | SMILES | activity change, negative = inhibition | Potency
24 | O=C(NCc1ccccn1)C(=O)NCC1OCCN1S(=O)(=O)c1ccc(Br)cc1 (centres undefined) |  | inconclusive: 5.8 µM [inhibitor, single point]
25 | CCn1c(CNC(=O)c2cccs2)nnc1SCC(=O)Nc1ccc(Cl)cc1 |  | inconclusive: 16.4 µM [inhibitor, single point]
26 | O=C(c1ccc(-c2ccccc2)cc1)N1CCN(c2ccccc2F)CC1 | inactive: 3.36% | 
27 | CCN(CC(=O)Nc1c(F)cccc1F)C(=O)CN1C(=O)NC2(CCCC2)C1=O |  | inconclusive: 13 µM [activator, single point]
28 | CCCn1c(C)cc(C(=O)CSc2nc3ccccc3c(=O)n2Cc2ccco2)c1C |  | inconclusive: 4.61 µM [activator, full curve]
29 | COC(=O)N/N=C/c1cn(CCOc2ccccc2OC)c2ccccc12 | inactive: -19.6% | 
30 | O=c1c(-c2ccc3c(c2)OCCO3)coc2c(CN3CCOCC3)c(O)ccc12 |  | inconclusive: 13 µM [activator, partial curve]
31 | COc1ccc(Cc2nnc(-c3ccccc3)o2)cc1 |  | inconclusive: 0.92 µM [activator, single point]
32 | c1ccc(-c2ccccc2OCCN2CCCC2)cc1 | inactive: 3.22% | 
33 | Cc1cccc(C)c1NC(=O)CCCSc1nc2ccccc2s1 | inactive: 4.67% | 
34 | COC(=O)c1ccc(C(=O)OC)c(NC(=O)N2c3ccccc3Sc3ccccc32)c1 | inactive: -3.1% | 
35 | Cc1ccc(C(=O)Cn2nc(C)c([N+](=O)[O-])c2C)c(C)c1 |  | inconclusive: 20.6 µM [activator, partial curve]
36 | CCN1C(=O)c2ccccc2S(=O)c2ccc(C(=O)N3CCCC3)cc21 (centres undefined) | inactive: 23% | 
37 | COc1ccccc1-c1cc(C(F)(F)F)nc(S(=O)(=O)CCCC(=O)Nc2cccnc2Cl)n1 |  | inconclusive: 3.26 µM [inhibitor, partial curve, poor fit]
38 | COc1cc(C2NC(=S)NC(c3ccccc3)=C2C(C)=O)ccc1O (centres undefined) | inactive: -0.313% | 
39 | CCS(=O)(=O)N1Cc2ccccc2CC1C(=O)Nc1nc2ccccc2[nH]1 (centres undefined) |  | inconclusive: 13 µM [activator, partial curve]
40 | COc1ccc(CC(=O)N/N=C/C=C/c2ccc3c(c2)OCO3)cc1OC |  | inconclusive: 0.146 µM [activator, single point]
41 | Cc1onc(-c2cccc(Cl)c2Cl)c1C(=O)O/N=C(\N)c1ccc([N+](=O)[O-])o1 |  | inconclusive: 14.6 µM [inhibitor, partial curve]
42 | O=C(N/N=C1/CC2C=CCC12)c1ccc(Br)o1 (centres undefined) |  | inconclusive: 25.9 µM [activator, single point]
43 | CCOC(=O)C(=CNc1ccc(-c2ccco2)c(Cl)c1)C(=O)OCC |  | inconclusive: 25.9 µM [inhibitor, partial curve]
44 | COc1ccc2cc(CCNC(=O)C(C)(C)C)c(=O)[nH]c2c1 |  | inconclusive: 11.6 µM [activator, partial curve]
45 | CC(c1nccs1)N(C)c1nc2nonc2nc1N(C)C (centres undefined) | inactive: 2.64% | 
46 | CCC(NC(=O)c1ccc2nc(Cc3ccc(OC)cc3)oc2c1)c1ccncc1 (centres undefined) |  | inconclusive: 2.06 µM [inhibitor, full curve]

Row | SMILES | activity change, negative = inhibition | Potency
47 | COc1ccc(OC)c(NC(=O)COC(=O)/C=C/c2c(C)nn(C3CCS(=O)(=O)C3)c2Cl)c1 (centres undefined) |  | inconclusive: 3.66 µM [inhibitor, single point]
48 | COc1ccc(C(C)(C)C)cc1NC(=O)COc1ccc(-c2nnco2)cc1 | inactive: 0.159% | 
49 | CCn1c(SCC(=O)Nc2ccccc2)nnc1C1CCCCC1 |  | inconclusive: 29.1 µM [inhibitor, single point]
50 | CC[C@H](C)/C=C(C)/C=C/C1=CC2=CC(=O)[C@]3(C)OC(=O)[C@@H](C(C)=O)[C@@H]3C2=CO1 | inactive: -6.27% | 
51 | CCOc1ccccc1N(C(=O)Cn1nnnc1-c1ccc(C)o1)C(CC)C(=O)NC(C)(C)C (centres undefined) |  | inconclusive: 23.1 µM [inhibitor, single point]
52 | O=C(Nc1cccc(C(F)(F)F)c1)C(=O)N1CCCCC1 |  | inconclusive: 16.4 µM [activator, partial curve]
53 | CCC(O)(CC)C(=O)NN(C(=O)CCl)c1ccccc1 |  | inconclusive: 29.1 µM [inhibitor, single point]
54 | COC(=O)c1cc(C#N)c(SCc2ccccc2)nc1C |  | inconclusive: 16.4 µM [activator, single point]
55 | CC1(C)N=C(SCC(=O)Nc2ccc(Cl)cc2)C(c2ccccc2)=N1 |  | inconclusive: 23.1 µM [inhibitor, partial curve, poor fit]
56 | O=C(OCC(=O)N1CCc2ccccc21)c1c2c(nc3ccccc13)CCCC2 |  | inconclusive: 23.1 µM [inhibitor, single point]
57 | Cc1sc(NC(=O)c2cccs2)nc1-c1ccccc1 |  | inconclusive: 20.6 µM [activator, partial curve]
58 | O=c1c(Cl)c(N2CCCCC2)cnn1-c1nc2ccccc2[nH]1 |  | inconclusive: 0.231 µM [activator, partial curve]
59 | COc1ccc(/C=C/c2nc(N)nc(-c3ccccc3O)n2)cc1OC |  | active: 20.6 µM
60 | CN1CCN(c2ncnc3c2cnn3-c2ccc(Cl)cc2)CC1 |  | inconclusive: 0.82 µM [activator, full curve]
61 | O=C(OCc1cc(=O)n2ccsc2n1)C1(c2ccc(Cl)cc2)CC1 | inactive: -0.471% | 
62 | COc1cc(CNCc2ccc(Br)cc2)cc(OC)c1 | inactive: 0.579% | 
63 | CCOC(=O)c1cc2c(=O)n3cccc(C)c3nc2n(CCOC)c1=NC(C)=O |  | inconclusive: 23.1 µM [inhibitor, partial curve, poor fit]
64 | O=c1c2ccccc2nc2n1CC/C2=C\c1ccccc1[N+](=O)[O-] |  | inconclusive: 0.517 µM [activator, single point]
65 | CCNc1ccc(C(=O)N/N=C/c2c(C)nn(-c3ccccc3)c2N2CCCC2)cc1[N+](=O)[O-] |  | active: 20.6 µM
66 | Nc1nc(NCc2ccco2)nc(N2CCCC2)c1[N+](=O)[O-] | inactive: 6.04% | 
67 | CCOC(=O)c1cccc(NC(=O)CS(=O)(=O)Cc2nc(-c3cccc(OC)c3)oc2C)c1 |  | inconclusive: 29.1 µM [inhibitor, single point]
68 | CSc1ccccc1OCc1cc(C(=O)N(C)Cc2nonc2C)no1 |  | inconclusive: 18.3 µM [activator, partial curve]
69 | Cc1cc(C(=O)NCc2ccco2)sc1C |  | inconclusive: 14.1 µM [activator, partial curve, poor fit]

Random excerpt: three entries already listed, in no set order.
Row | SMILES | activity change, negative = inhibition | Potency
55 | CC1(C)N=C(SCC(=O)Nc2ccc(Cl)cc2)C(c2ccccc2)=N1 |  | inconclusive: 23.1 µM [inhibitor, partial curve, poor fit]
66 | Nc1nc(NCc2ccco2)nc(N2CCCC2)c1[N+](=O)[O-] | inactive: 6.04% | 
67 | CCOC(=O)c1cccc(NC(=O)CS(=O)(=O)Cc2nc(-c3cccc(OC)c3)oc2C)c1 |  | inconclusive: 29.1 µM [inhibitor, single point]
